This test concerns the target Protein disulfide isomerase (rat (endogenous in hippocampus)) (UniProt P04785). Kind of test: co-IP; rat hippocampal tissue lysed in RIPA buffer with protease and phosphatase inhibitors and 1 mM sodium orthovanadate; 150 ug protein precipitated with the PDI antibody (10 ug/ml) and protein G sepharose at 4 °C overnight; Western blot for P2X7R; animals: control or 3 days after pilocarpine-induced SE, infused with vehicle or L-NAME, control siRNA or PDI siRNA. (A western blot detects proteins with antibodies after separation by electrophoresis.)

The chains behind the UniProt entries cited, without tags or fusion partners. Residues count along the entry.
UniProt P04785, residues 20-509: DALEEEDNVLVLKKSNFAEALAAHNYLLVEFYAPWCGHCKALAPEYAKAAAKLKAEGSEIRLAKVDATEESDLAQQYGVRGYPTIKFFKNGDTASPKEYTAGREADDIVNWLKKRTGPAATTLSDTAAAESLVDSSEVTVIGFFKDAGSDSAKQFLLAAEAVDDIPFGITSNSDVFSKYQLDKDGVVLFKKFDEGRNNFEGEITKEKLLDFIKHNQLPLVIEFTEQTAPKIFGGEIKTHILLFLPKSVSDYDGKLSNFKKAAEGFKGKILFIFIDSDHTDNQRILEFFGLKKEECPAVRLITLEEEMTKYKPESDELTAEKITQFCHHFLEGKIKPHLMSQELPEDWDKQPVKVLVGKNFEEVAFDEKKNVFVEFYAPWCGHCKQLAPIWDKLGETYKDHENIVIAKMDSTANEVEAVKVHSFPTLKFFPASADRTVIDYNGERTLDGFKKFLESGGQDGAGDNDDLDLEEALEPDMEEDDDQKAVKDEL

These are yes or no findings as the source states them, for the method shown. In cells and extracts the contact can be indirect. Some entries that bind do so weakly or less than the wild type.

B1: P2X7 receptor (receptor, UniProt Q64663 1-595)
chain: MPACCSWNDVFQYETNKVTRIQSVNYGTIKWILHMTVFSYVSFALMSDKLYQRKEPLISSVHTKVKGVAEVTENVTEGGVTKLVHGIFDTADYTLPLQGNSFFVMTNYLKSEGQEQKLCPEYPSRGKQCHSDQGCIKGWMDPQSKGIQTGRCIPYDQKRKTCEIFAWCPAEEGKEAPRPALLRSAENFTVLIKNNIDFPGHNYTTRNILPGMNISCTFHKTWNPQCPIFRLGDIFQEIGENFTEVAVQGGIMGIEIYWDCNLDSWSHRCQPKYSFRRLDDKYTNESLFPGYNFRYAKYYKENGMEKRTLIKAFGVRFDILVFGTGGKFDIIQLVVYIGSTLSYFGLATVCIDLIINTYASTCCRSRVYPSCKCCEPCAVNEYYYRKKCEPIVEPKPTLKYVSFVDEPHIWMVDQQLLGKSLQDVKGQEVPRPQTDFLELSRLSLSLHHSPPIPGQPEEMQLLQIEAVPRSRDSPDWCQCGNCLPSQLPENRRALEELCCRRKPGQCITTSELFSKIVLSREALQLLLLYQEPLLALEGEAINSKLRHCAYRSYATWRFVSQDMADFAILPSCCRWKIRKEFPKTQGQYSGFKYPY
For B1, the binding result is recorded as “binds”.

Values taken from publication PMC7788848.
